{
  "source": "PubChem BioAssay AID1508619",
  "about": "(National Center for Advancing Translational Sciences (NCATS), 2020)",
  "note": "Values joined by “and” are separate entries in the source; they are usually repeats but may differ in a detail not shown here. Equal values may be shown once. Inconclusive means that the source gave no clear call. Such entries were picked first, then a sample of the others. A potency beside an inconclusive call is a rough fit, not a confirmed value. Active and inactive are the calls of the source. Calls come from the whole dose curve; as a rule, active = well fitted inhibition curve with a large enough effect; inconclusive = small, poorly fitted or top-dose-only effect; inactive = no such curve, though single readings can be large or run the other way. Potency is the fitted concentration of half-maximal effect.",
  "data": [
    {"assay": "Counterscreen qHTS for Identification of Calcium Integrin Binding Protein 1 (CIB1) Competitor", "conditions": "series mostly up to 114 µM", "procedure,_shortened": "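Counterscreen FP assay: CIB1-GST 1 uM in 5 mM HEPES pH 7.4, 125 mM NaCl, 5 mM CaCl2, 0.01% Tween20, with compounds up to 114 uM for 15 min, then 100 nM FITC-labelled scrambled peptide, 15 min, polarization read ex 480/em 540.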", "values": [
      {"smiles": "CC(=O)Nc1sc2c(c1-c1nc3ccccc3s1)CNC2", "Potency": "inactive and inconclusive: 50.1 µM [inhibitor, partial curve, poor fit]"},
      {"smiles": "COc1cccc(CN(C)c2ccc([S+](=O)([O-])Nc3nccs3)cc2)c1O", "Potency": "inconclusive: 39.8 µM [inhibitor, partial curve, poor fit]"},
      {"smiles": "O=C1c2c(O)ccc(O)c2C(=O)c2c(NCCNCCO)ccc(NCCNCCO)c21", "Potency": "active: 20 µM"},
      {"smiles": "COc1cccc2nc(-c3cccs3)nc(NN3C(=O)C=C(C)C3=O)c12", "Potency": "inconclusive: 17.8 µM [inhibitor, full curve, poor fit]"},
      {"smiles": "NC(=O)c1cccc(-c2cnc3c(O)ccc(C(=O)O)c3c2)c1", "Potency": "inconclusive: 35.5 µM [inhibitor, partial curve, poor fit]"},
      {"smiles": "O=C(c1ccc(-c2cc(O)c3ncccc3c2)cc1)N1CCNCC1", "Potency": "inconclusive: 35.5 µM [inhibitor, full curve]"},
      {"smiles": "CCC(OC(=O)c1ccc(S(C)(=O)=O)c([N+](=O)[O-])c1)C(=O)NC1C2CC3CC(C2)CC1C3", "note": "(stereo unspecified)", "Potency": "inconclusive: 31.6 µM [inhibitor, partial curve]"},
      {"smiles": "CC(C)(O)CCc1ccc(OCc2cc(-c3cccc(OC(F)F)c3)c3ncccc3c2)cc1", "Potency": "inactive"},
      {"smiles": "O=[N+]([O-])c1cccc(CNc2ccc(S(=O)(=O)Nc3nccs3)cc2)c1O", "Potency": "inconclusive: 50.1 µM [inhibitor, partial curve]"},
      {"smiles": "O=[N+]([O-])c1ccc(CNc2ccc([S+](=O)([O-])Nc3nccs3)cc2)c(O)c1", "Potency": "inconclusive: 25.1 µM [inhibitor, partial curve]"},
      {"smiles": "Cc1ccc(-n2[nH]c(C)c(N=Nc3cccc(-c4cccc(C(=O)O)c4)c3O)c2=O)cc1C", "Potency": "inconclusive: 35.5 µM [inhibitor, full curve]"},
      {"smiles": "NC(=O)C1CCN(c2ncc(Br)s2)CC1", "Potency": "active: 39.8 µM"},
      {"smiles": "CN(C)CCCCCCNC(=O)c1cccc(-c2cc(O)c3ncccc3c2)c1", "Potency": "inconclusive: 44.7 µM [inhibitor, partial curve, poor fit]"},
      {"smiles": "N#Cc1ccc(N[S+](=O)([O-])c2ccc(Nc3nc(-c4ccccc4)cs3)cc2)cc1", "Potency": "active: 44.7 µM"},
      {"smiles": "COc1cc([C@H]2Oc3cc([C@H]4Oc5cc(O)cc(O)c5C(=O)[C@@H]4O)ccc3O[C@@H]2CO)ccc1O", "Potency": "inactive"},
      {"smiles": "CNc1oc(-c2c[nH]c3ccccc23)nc1C#N", "Potency": "inconclusive: 28.2 µM [inhibitor, partial curve, poor fit]"},
      {"smiles": "Cc1ccc2nc3sc(C(=O)NCc4ccco4)cc3cc2c1", "Potency": "inactive"},
      {"smiles": "O=[S+]([O-])(Nc1nccs1)c1ccc(NCc2cc(F)cc(Cl)c2O)cc1", "Potency": "inactive"},
      {"smiles": "O=C1CCCC2=C1C(c1ccn[nH]1)N=C(Nc1nc3ccccc3o1)N2", "note": "(stereo unspecified)", "Potency": "inactive"},
      {"smiles": "CCOC(=O)N1CCN(/[N+]([O-])=N/Oc2ccc([N+](=O)[O-])cc2[N+](=O)[O-])CC1", "Potency": "inconclusive: 44.7 µM [inhibitor, partial curve]"},
      {"smiles": "NC(=O)C1CCN(c2nc(-c3ccccc3N)cs2)CC1", "Potency": "inconclusive: 28.2 µM [inhibitor, full curve, poor fit]"},
      {"smiles": "O=C(Cc1ccc(Cl)c(Cl)c1)Nc1ccc(S(=O)(=O)Nc2cccc(C(=O)O)c2)cc1", "Potency": "inactive"},
      {"smiles": "COc1ccc2nc(S(=O)Cc3ncc(C)c(OC)c3C)[nH]c2c1", "note": "(stereo unspecified)", "Potency": "inconclusive: 35.5 µM [inhibitor, partial curve]"},
      {"smiles": "Nc1ccc(O)c([N+](=O)[O-])c1", "Potency": "active: 63.1 µM"},
      {"smiles": "O=S(=O)(Nc1nccs1)c1ccc(NCc2cc(Cl)ccc2O)cc1", "Potency": "inactive"},
      {"smiles": "Cc1cc2nc3ccc(=[N+](C)C)cc-3sc2cc1N", "Potency": "active: 44.7 µM"},
      {"smiles": "O=C(O)c1cc(O)c2c(c1)C(=O)c1cccc(O)c1C2=O", "Potency": "inconclusive: 20 µM [inhibitor, full curve]"},
      {"smiles": "CC(C)(C)c1ccc(SC2=NS(=O)(=O)c3ccccc32)cc1", "Potency": "inactive"},
      {"smiles": "CCN1CCN(c2cccc(Nc3nn4c(=O)c5ccccc5nc4s3)c2)CC1", "Potency": "inconclusive: 89.1 µM [inhibitor, single point]"},
      {"smiles": "NS(=O)(=O)c1ccc(Nc2nc(-c3ccccc3)cs2)cc1", "Potency": "active: 44.7 µM"},
      {"smiles": "C=Cc1c(C)c2cc3[nH]c(cc4nc(cc5nc(cc1[nH]2)C(C)=C5CCC(=O)O)C(CCC(=O)O)=C4C)c(C)c3C=C", "Potency": "active: 25.1 µM"}
    ]}
  ]
}
